Publication doi:10.1101/2023.08.07.552250
Results are given in words; binding and its absence hold for the method and conditions named. A result given as binding can be weak or reduced; the word gives no strength.

T1: serine/arginine-rich 45 (SR45), SR45.1 isoform (Arabidopsis thaliana) (UniProt Q9SEE9)
T1 sequence: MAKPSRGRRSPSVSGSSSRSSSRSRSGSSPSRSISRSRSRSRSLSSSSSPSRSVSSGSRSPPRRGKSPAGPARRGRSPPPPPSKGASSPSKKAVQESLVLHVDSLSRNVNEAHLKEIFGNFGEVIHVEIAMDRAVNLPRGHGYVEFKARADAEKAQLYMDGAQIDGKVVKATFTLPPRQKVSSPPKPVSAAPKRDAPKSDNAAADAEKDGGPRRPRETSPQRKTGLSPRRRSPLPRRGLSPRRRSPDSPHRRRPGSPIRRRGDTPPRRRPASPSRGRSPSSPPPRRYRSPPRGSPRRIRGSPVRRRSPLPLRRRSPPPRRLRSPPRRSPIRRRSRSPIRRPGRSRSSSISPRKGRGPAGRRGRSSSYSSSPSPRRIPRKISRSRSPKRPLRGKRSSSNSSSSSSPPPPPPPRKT

B1: SR34 (protein, UniProt O22315 1-303)
chain: MSSRSSRTVYVGNLPGDIREREVEDLFSKYGPVVQIDLKVPPRPPGYAFVEFDDARDAEDAIHGRDGYDFDGHRLRVELAHGGRRSSDDTRGSFNGGGRGGGRGRGDGGSRGPSRRSEFRVLVTGLPSSASWQDLKDHMRKGGDVCFSQVYRDARGTTGVVDYTCYEDMKYALKKLDDTEFRNAFSNGYVRVREYDSRKDSRSPSRGRSYSKSRSRSRGRSVSRSRSRSRSRSRSPKAKSSRRSPAKSTSRSPGPRSKSRSPSPRRSRSRSRSPLPSVQKEGSKSPSKPSPAKSPIHTRSPSR
B2: RS31a (protein, UniProt Q9ZPX8 1-250)
chain: MRHVYVGNFDYDTRHSDLERLFSKFGRVKRVDMKSGYAFVYFEDERDAEDAIRRTDNTTFGYGRRKLSVEWAKDFQGERGKPRDGKAVSNQRPTKTLFVINFDPIRTRERDMERHFEPYGKVLNVRMRRNFAFVQFATQEDATKALDSTHNSKLLDKVVSVEYALREAGEREDRYAGSRRRRSPSPVYRRRPSPDYTRRRSPEYDRYKGPAPYERRKSPDYGRRSSDYGRARARSPGYDRSRSPIQRARG
B3: SCL30 (protein, UniProt Q8L3X8 1-262)
chain: MRRYSPPYYSPPRRGYGGRGRSPPPPPPRRGYGGGGGGGGRRGSSHGSLLVRNIPLDCRPEELREPFERFGPVRDVYIPRDYYSGQPRGFAFVEFVDAYDAGEAQRSMNRRSFAGREITVVVASESRKRPEEMRVKTRTRSREPSGSRDRSHGRSRSRSISRSRSPRRPSDSRSRYRSRSYSPAPRRRGGPPRGEEDENYSRRSYSPGYEGAAAAAPDRDRNGDNEIREKPGYEAEDRRRGGRAVSRSPSGSRSRSVEVSPR
B4: PRP38 (Pre-mRNA Processing factor 38) (protein, UniProt Q8LB54 1-355)
chain: MANRTDPLAKNIRGTNPQNLVEKIVRTKIYQHTFWKEQCFGLTAETLVDKAMELDHLGGTFGGSRKPTPFLCLILKMLQIQPEKEIVVEFIKNDDYKYVRILGAFYLRLTGTDVDVYRYLEPLYNDYRKVRQKLSDGKFSLTHVDEVIEELLTKDYSCDIAMPRLKKRWTLEQNGLLEPRKSVLEDDFEEEEEKEENEGIADGSEDEMDQRRKSPERERERDRDRRRDSHRHRDRDYDRDYDMDRDHDRDYERERGHGRDRDRERDRDHYRERDRDRERGRDRERDRRDRARRRSRSRSRDRKRHETDDVRDREEPKKKKEKKEKMKEDGTDHPNPEIAEMNRLRASLGMKPLRD
B5: ALY4 (protein, UniProt Q6NQ72 1-288)
chain: MSGALNMTLDEIVKRGKTARSGGRGISRGRGRGRGGGGRGAGPARRGPLAVNARPSSFTINKPVRRVRSLPWQSGLFEDGLRAAGASGVEVGTRLHVTNLDQGVTNEDIRELFSEIGEVERYAIHYDKNGRPSGTAEVVYPRRSDAFQALKKYNNVLLDGRPMRLEILGGNNSSEAPLSGRVNVNVTGLNGRLKRTVVIQQGGGGRGRVRGGRGGRGPAPTVSRRLPIHNQQGGGMRGGRGGFRARGRGNGGRGRGGGRGNGKKPVEKSAADLDKDLESYHADAMNTS
B6: RS2Z32 (arginine/serine-rich zinc knuckle-containing protein 32) (protein, UniProt Q9FYB7 1-284)
chain: MPRYDDRYGNTRLYVGRLSSRTRTRDLERLFSRYGRVRDVDMKRDYAFVEFSDPRDADDARYYLDGRDFDGSRITVEASRGAPRGSRDNGSRGPPPGSGRCFNCGVDGHWARDCTAGDWKNKCYRCGERGHIERNCKNSPSPKKARQGGSYSRSPVKSRSPRRRRSPSRSRSYSRGRSYSRSRSPVRREKSVEDRSRSPKAMERSVSPKGRDQSLSPDRKVIDASPKRGSDYDGSPKENGNGRNSASPIVGGGESPVGLNGQDRSPIDDEAELSRPSPKGSESP
B7: RSZ21 (protein, UniProt O81127 1-187)
chain: MTRVYVGNLDPRVTERELEDEFKAFGVLRNVWVARRPPGYAFLEFDDERDALDAISALDRKNGWRVELSHKDKGGRGGGGGRRGGIEDSKCYECGELGHFARECRRGRGSVRRRSPSPRRRRSPDYGYARRSISPRGRRSPPRRRSVTPPRRGRSYSRSPPYRGSRRDSPRRRDSPYGRRSPYANGV
B8: RZ-1B (protein, UniProt O22703 1-292)
chain: MKDRENDGNLESRIFVGGLSWDVTERQLESTFDRYGKITECQIMVGRDTGRPRGFGFITFTDRRGADDAIKHMHGRELGNKVISVNKAEPKVGGEDVDQLKKGGGYSSRGKGTEDECFKCRRPGHWARDCPSTGDDRERFRVPLAMRSRIGDIDGHRDRYGDRDLEREREREREFDRYMDGRRDRDGGRYSYRDRFDSGDKYEPRDHYPFERYAPPGDRFVSDRYGMPEHHLENEYRGRERSYDRDRYARDTSDRYGDMGPIRDEGRPYRSRPGPYDRPSRPGGRPSSYERW
B9: RZ-1C (protein, UniProt Q8RWN5 1-310)
chain: MAAKEGSRIFVGGLSPEVTDRDLERAFSRFGDILDCQIMLERDTGRSRGFGFITFADRRAMDESIREMHGRDFGDRVISVNRAEPKLGRDDGESHGSRGGRDSGYSIAGKGSFGGGGGGGGRVGEDECFKCGRVGHWARDCPSAGGGRGGPVGGFSSRASAYGGSDGRVDRYADRDRYVDRERYIDDRYDGAARYGARDRFDSREAYIPRDRYASDRYAAPADRFAGGDRYSRGSDRYPPGSYDKARSFERDIAPSAGSDRYGGGRAGGPIRGGGEEGRGFRSRAGAPYERPSRSGGGGAYPSSSTFDRY
B10: MOS12 (MODIFIER OF SNC1-1, 12) (protein, UniProt Q8RWV3 1-416)
chain: MIYTAIDNFYLSDEQLKASPSRKDGIDETTEISLRIYGCDLIQEGGILLKLPQAVMATGQVLFQRFYCKKSLAKFDVKIVAASCVWLASKLEENPKKARQVIIVFHRMECRRENLPLEHLDMYAKKFSELKVELSRTERHILKEMGFVCHVEHPHKFISNYLATLETPPELRQEAWNLANDSLRTTLCVRFRSEVVACGVVYAAARRFQVPLPENPPWWKAFDADKSSIDEVCRVLAHLYSLPKAQYISVCKDGKPFTFSSRSGNSQGQSATKDLLPGAGEAVDTKCTAGSANNDLKDGMVTTPHEKATDSKKSGTESNSQPIVGDSSYERSKVGDRERESDREKERGRERDRGRSHRGRDSDRDSDRERDKLKDRSHHRSRDRLKDSGGHSDKSRHHSSRDRDYRDSSKDRRRHH
B11: MOS14 (MODIFIER OF SNC1-1, 14) (protein, UniProt Q8GUL2 1-958)
chain: MEHQNAVKEALNALYHHPDDTVRVHADRWLQNFQGTLDAWQVADNLLHDSSSNLETLIFCSQTLRSKVQRDFEELPPGAFQKLRQSLTTLLKKFHKGPPKVRTQISIAVAALAVHVPAADWGDGGIISWLRDEMHMHPEYVPGFLELLTVLPEETFNYKIAARPDRRRQFEKELTSQMEAALSILSACLKISELKEQVLEAFASWLRLRHGIPGTVLACHPLVHAALSSLNCDPLSEASVNVISELIHHTASPSSGGISAQTPLIQVIVPQILSLQAHLRDSSKDEEDVKAIGRLFADVGDSYVELIATGSDEPMVIVHALLEVTAHPEFDIASMTFNFWHSLQLMLTKRESYSSLGSEASIEVERNRRLHIFQPAYQSLVSLVGFRVQYPEDYQGLSYEDLKEFKQTRYAVADVLIDAALILGGDTTLKILYMKLLEANAQTGNNFQDWRPAEAILFCIWAISNYVSVVEAEVMPQVMALLQNLPQQAQLLQTACLLVGAYSKWLNAAPASVSILPSIIRILMSGMGTSEDCAAAAALAFRHTCDDCRKNLCGYFEDLFNIYCMAINGGGGYKVSAEDSLNLVEALGMVVTELPLDQAKGALEKLCFSAASPLEEAAKEDLEKKHARELTVHIDRFAFLFRYVNHPEAVAAEINKHWAIFRVIFDARPWDMRTMESLCRACKYAVRTSGRYIIDTIGEMLEKIQFHYQQHHQPCFLYLSSEVIKIFGSDPSCAVYLKNLIETLFAHTTCLMTSIKEVTARPDIADDCFLLASRCLRYCPHLFIPSPIFPALVNCAMIGITVQHREACHSILTFLTDIFDLEKSVNEEQFVRIRDNIIIPRGATITRILIASLAGALPSSRLDTVTYSLLALTRTYRLQAVSWAKESVSLIPRTALTETESTKFLQALSDIAYGADVNSLIGQVEELSDVCRRNRTVQELVQAALKPLELNLVTAPVS

The molecules below were run against T1, serine/arginine-rich 45 (SR45), SR45.1 isoform (Arabidopsis thaliana) (assay: two-hybrid).
In the case of SRPK2 (Arabidopsis thaliana) (enzyme), the binding is reported as “no binding”.
In the case of SRPK3a (Arabidopsis thaliana) (enzyme), the binding is reported as “binds”.
With “SRPK3b/SRPK5 (Arabidopsis thaliana) (enzyme)” the binding was “binds”.
For SRPK1 (Arabidopsis thaliana) (enzyme), the binding was “no binding”.

Each molecule was assayed against SR45mutRS1 (Arabidopsis thaliana) (UniProt Q9SEE9) (assay: two-hybrid).
For B1, the binding was “binds”.
For B2, the binding was “binds”.
In the case of B3, the binding is reported as “binds”.
B4 was tested, and the binding was “binds”.
With B5 the binding was “binds weakly”.
For B6, the binding was “no binding”.
With B7 the binding was “no binding”.
With B8 the binding was “no binding”.
For B9, the binding was “no binding”.
In the case of B10, the binding is reported as “no binding”.

Each molecule was assayed against SR45mutRS1+RRM (Arabidopsis thaliana) (UniProt Q9SEE9) (assay: two-hybrid).
For B5, the binding was “binds weakly”.
B6 was tested, and the binding was “no binding”.
For B7, the binding was “no binding”.
With B8 the binding was “no binding”.
With B9 the binding was “no binding”.
B10 was tested, and the binding was “no binding”.

Each molecule was assayed against SR45mutRS2 (Arabidopsis thaliana) (UniProt Q9SEE9) (assay: two-hybrid).
With B1 the binding was “binds”.
For B2, the binding was “binds”.
For B3, the binding was “binds”.
With B4 the binding was “binds”.
In the case of B11, the binding is reported as “no binding”.

What follows are molecules tested against SR45mutRS1+RS2 (Arabidopsis thaliana) (UniProt Q9SEE9) (assay: two-hybrid).
For B1, the binding was “no binding”.
For B2, the binding was “no binding”.
B3 was tested, and the binding was “no binding”.
B4 was tested, and the binding was “binds”.
With B6 the binding was “no binding”.
With B7 the binding was “no binding”.
For B8, the binding was “no binding”.
With B9 the binding was “no binding”.
For B10, the binding was “no binding”.
